Measurements as given in ChEMBL document CHEMBL1133426, “2-Substituted paullones: CDK1/cyclin B-inhibiting property and in vitro antiproliferative activity” (Bioorg Med Chem Lett, 2000).

What was measured:
cells = type: functional; settings: Homo sapiens
HCT-116 = test: cells; type: functional; settings: Homo sapiens

| Structure (SMILES) | GI50 (cells) [µM] | GI50 (HCT-116) [µM] |
| --- | --- | --- |
| O=C1Cc2c([nH]c3ccc(C(F)(F)F)cc23)-c2ccccc2N1 | 79.4 | 3.98 |
| N#CCCc1ccc2c(c1)-c1[nH]c3ccc(C(F)(F)F)cc3c1CC(=O)N2 | 2 | 0.794 |
